The values that follow come from US20230333019A1, “TWO-PHOTON FLUORESCENT PROBES FOR SIMULTANEOUSLY DETECTING CALCIUM IONS IN ORGANELLES AND LYSOSOMAL PROTONS” (Korea University Research and Business Foundation, priority 2022, published 2023).

Each structure is given as a SMILES string.

The subject of this series is HeLa cells. Briefly: Effective TP action cross-section (Φδeff) in probe-labeled cells. It is filed as cell-based. The note with it: bright spots in HeLa cells. How it is done:
Φδ and Φδeff for the probes were evaluated using the fluorescence method as reported in other studies (Chem. Asian J. 2015, 10(10):2240-2249).
Take `CCCCCCOc1ccc2oc(-c3ccc4cc(NCC(=O)Nc5ccc(N(CC(=O)[O-])CC(=O)[O-])c(OCC(=O)N6CCOCC6)c5)ccc4c3)nc2c1.[K+].[K+]` [BCa-3mem]: the “Effective concentration ceff = Φδeff/Φδmax” value is 80 µM. Regarding `CCN(CC)c1ccc(NC(=O)CNc2ccc3c(c2)C(C)(CC(=O)NCCN(C)C)c2cc(C(C)=O)ccc2-3)cc1` (stereo not drawn) [FHEt-1lyso], the “Effective concentration ceff = Φδeff/Φδmax” value amounted to 300 µM. For `O=C([O-])CN(CC(=O)[O-])c1ccc(NC(=O)CNc2ccc3cc(-c4nc5cc(OCCC[P+](c6ccccc6)(c6ccccc6)c6ccccc6)ccc5o4)ccc3c2)cc1OCCOc1c(F)cccc1N(CC(=O)[O-])CC(=O)[O-].[Br-].[K+].[K+].[K+].[K+]` [BCa-2mito] the value was 29 µM.
